Data on 1 molecule can be found in article PMC9344665.

This assay concerns the target T1, FARSA N410K variant (human) (UniProt Q9Y285).
T1 sequence: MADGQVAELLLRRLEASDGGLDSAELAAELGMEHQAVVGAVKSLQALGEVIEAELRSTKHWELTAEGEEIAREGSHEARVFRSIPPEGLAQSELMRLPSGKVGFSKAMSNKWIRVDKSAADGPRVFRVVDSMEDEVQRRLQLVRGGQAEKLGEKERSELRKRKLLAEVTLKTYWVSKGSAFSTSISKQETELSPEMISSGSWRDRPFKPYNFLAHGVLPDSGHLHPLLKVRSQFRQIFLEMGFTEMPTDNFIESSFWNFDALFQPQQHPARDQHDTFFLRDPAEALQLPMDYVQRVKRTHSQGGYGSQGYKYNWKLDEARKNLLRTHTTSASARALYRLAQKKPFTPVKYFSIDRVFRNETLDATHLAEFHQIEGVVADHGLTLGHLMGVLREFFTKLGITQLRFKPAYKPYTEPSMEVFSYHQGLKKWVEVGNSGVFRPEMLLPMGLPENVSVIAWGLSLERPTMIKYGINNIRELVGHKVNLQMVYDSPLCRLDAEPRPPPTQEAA
The assay is described as follows: co-purification of coexpressed proteins (Ni-NTA, heparin, size-exclusion chromatography); His6-FARSA and untagged FARSB coexpressed in E. coli Rosetta (DE3); lysate on Ni-NTA (20 mM Tris-HCl pH 8.5, 500 mM NaCl), His6-tag removed with HRV3C, HiTrap Heparin HP with a NaCl gradient, then SEC in 20 mM HEPES-NaOH pH 7.5, 150 mM NaCl; SDS-PAGE of fractions.

These are yes or no findings as the source states them, for the method shown. Some entries that bind do so weakly or less than the wild type. Tags and fused reporters may be left off the sequences shown.

B1: FARSB (β subunit of cytosolic phenylalanyl-tRNA synthetase FARS1), no affinity tag (enzyme, UniProt Q9NSD9 1-584)
chain: MPTVSVKRDLLFQALGRTYTDEEFDELCFEFGLELDEITSEKEIISKEQGNVKAAGASDVVLYKIDVPANRYDLLCLEGLVRGLQVFKERIKAPVYKRVMPDGKIQKLIITEETAKIRPFAVAAVLRNIKFTKDRYDSFIELQEKLHQNICRKRALVAIGTHDLDTLSGPFTYTAKRPSDIKFKPLNKTKEYTACELMNIYKTDNHLKHYLHIIENKPLYPVIYDSNGVVLSMPPIINGDHSRITVNTRNIFIECTGTDFTKAKIVLDIIVTMFSEYCENQFTVEAAEVVFPNGKSHTFPELAYRKEMVRADLINKKVGIRETPENLAKLLTRMYLKSEVIGDGNQIEIEIPPTRADIIHACDIVEDAAIAYGYNNIQMTLPKTYTIANQFPLNKLTELLRHDMAAAGFTEALTFALCSQEDIADKLGVDISATKAVHISNPKTAEFQVARTTLLPGLLKTIAANRKMPLPLKLFEISDIVIKDSNTDVGAKNYRHLCAVYYNKNPGFEIIHGLLDRIMQLLDVPPGEDKGGYVIKASEGPAFFPGRCAEIFARGQSVGKLGVLHPDVITKFELTMPCSSLEIN
For B1, the binding entry was “binds”.
